Measurements reported in PubChem BioAssay AID504786 (Drosophila RNAi Screening Center, 2011)
The deposit covers about 21,000 reagents; shown is a random part of those with a known target gene and a result. 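Primary screen; positive scores mean lost reporter signal, so the sign may be inverted from the usual convention.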 The numbers tell different reagents against one gene apart. Names joined by + are all predicted targets of the reagent.

Screen: 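Positive regulators of HIF-driven reporter output in Drosophila cells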 (primary screen)
Cell system: Drosophila S2 cells with a stable HIF luciferase reporter
Reagents: long dsRNA against Drosophila genes, about 0.2 µg dsRNA per well of a 384-well plate
Timing: three days of knock-down, then 20 h of DFO before reading
Treatment: desferrioxamine (DFO) at 100 µM, an iron chelator that mimics hypoxia, for 20 h
Detection: 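HIF reporter luminescence in cells given 100 µM DFO for 20 h, using the mouse ldh-a hypoxia-response element, scored as per-plate z-scores; higher means greater loss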
Scale: z-score: higher = stronger loss of HIF reporter signal

CG13297 gave z-score, replicate 1 = -0.3; z-score, replicate 2 = -0.5. After knock-down of rtv, the record shows z-score, replicate 1 = -0.1; z-score, replicate 2 = -0.1. Silencing of CG4404 resulted in: z-score, replicate 1 = -0.3; z-score, replicate 2 = -0.9. CG14223 scored z-score, replicate 1 = -0.1; z-score, replicate 2 = -0.5. Silencing of CalpB resulted in: z-score, replicate 1 = -0.3; z-score, replicate 2 = 0. For CG6656 the deposit lists z-score, replicate 1 = -0.3; z-score, replicate 2 = -0.4.

After knock-down of CG11865, the screen gave z-score, replicate 1 = 2; z-score, replicate 2 = -0.2. CG15753 (retired record) gave z-score, replicate 1 = -0.1; z-score, replicate 2 = 4.6. Knock-down of ewg resulted in: z-score, replicate 1 = -0.4; z-score, replicate 2 = -0.5. After knock-down of SppL, the screen gave z-score, replicate 1 = -0.2; z-score, replicate 2 = -0.6. Against CG6985, the entry reads z-score, replicate 1 = -0.3; z-score, replicate 2 = -0.6. With knock-down of CG34231 the results were z-score, replicate 1 = -0.1; z-score, replicate 2 = -0.2.

Depletion of CG13946 gave: z-score, replicate 1 = -0.2; z-score, replicate 2 = -0.9. For hng1, the values are z-score, replicate 1 = -0.3; z-score, replicate 2 = -0.4. msps scored z-score, replicate 1 = -0.2; z-score, replicate 2 = -0.3. Silencing of armi gave: z-score, replicate 1 = -0.3; z-score, replicate 2 = 0.4. Against CG6550 the deposit lists z-score, replicate 1 = 0.1; z-score, replicate 2 = -0.1. Silencing of TwdlT came out at: z-score, replicate 1 = -0.2; z-score, replicate 2 = -0.7.

Knock-down of RpL23A gave: z-score, replicate 1 = -0.2; z-score, replicate 2 = -0.2. Knock-down of TrissinR #1 resulted in: z-score, replicate 1 = -0.2; z-score, replicate 2 = -0.1. After knock-down of TrissinR #2, the screen gave z-score, replicate 1 = -0.5; z-score, replicate 2 = -0.4. Depletion of TrissinR #3 resulted in: z-score, replicate 1 = -0.3; z-score, replicate 2 = -0.2. Against CtsL4 the deposit lists z-score, replicate 1 = -0.1; z-score, replicate 2 = -0.2. Depletion of Or65a resulted in: z-score, replicate 1 = 0.2; z-score, replicate 2 = 1.

Silencing of Ctr1B + Poxm resulted in: z-score, replicate 1 = 0.1; z-score, replicate 2 = 0.5. For Fbxo42 the deposit lists z-score, replicate 1 = -0.3; z-score, replicate 2 = -0.6. For dac, the values are z-score, replicate 1 = 0.3; z-score, replicate 2 = 0. CG3253 gave z-score, replicate 1 = -0.1; z-score, replicate 2 = -0.1. After knock-down of CG4367, the screen gave z-score, replicate 1 = -0.5; z-score, replicate 2 = -0.4. After knock-down of tRNA:Leu-CAA-2-3 the results were z-score, replicate 1 = -0.2; z-score, replicate 2 = -0.1.

Against sni the deposit lists z-score, replicate 1 = -0.2; z-score, replicate 2 = -0.3. Against Sems, the values are z-score, replicate 1 = -0.3; z-score, replicate 2 = -0.4. With knock-down of Flad2 the results were z-score, replicate 1 = -0.1; z-score, replicate 2 = -0.5. Against Fdx1 the deposit lists z-score, replicate 1 = 0.1; z-score, replicate 2 = -0.1. EMC4 scored z-score, replicate 1 = -0.2; z-score, replicate 2 = 0. Against Tollo the deposit lists z-score, replicate 1 = -0.4; z-score, replicate 2 = -0.1.

Against CG32459 the deposit lists z-score, replicate 1 = -0.4; z-score, replicate 2 = -0.3. PI31 gave z-score, replicate 1 = -0.4; z-score, replicate 2 = -0.5. After knock-down of Lamtor4, the record shows z-score, replicate 1 = 0.5; z-score, replicate 2 = 0.5. Knock-down of Syb came out at: z-score, replicate 1 = -0.4; z-score, replicate 2 = -0.5.

Entries listed so far whose target name starts with T or t (6):
TwdlT — z-score, replicate 1 = -0.2; z-score, replicate 2 = -0.7
TrissinR #1 — z-score, replicate 1 = -0.2; z-score, replicate 2 = -0.1
TrissinR #2 — z-score, replicate 1 = -0.5; z-score, replicate 2 = -0.4
TrissinR #3 — z-score, replicate 1 = -0.3; z-score, replicate 2 = -0.2
tRNA:Leu-CAA-2-3 — z-score, replicate 1 = -0.2; z-score, replicate 2 = -0.1
Tollo — z-score, replicate 1 = -0.4; z-score, replicate 2 = -0.1
